Test results taken from PubChem BioAssay AID1745846 (National Center for Advancing Translational Sciences (NCATS), 2022).
Hit rate of the full screen: of about 1,400 compounds, about 30 (2%) were called active. About 15% were inconclusive and are not listed. Calls follow the shape of the dose curve; as a rule, active = well fitted inhibition curve with a large enough effect; inconclusive = small, poorly fitted or top-dose-only effect; inactive = flat fitted curve, though single readings scatter. The list shows a part of the results.

Assay: Firefly Luciferase Counterscreen for Inhibitors of ATXN expression
Conditions: luminescence; series mostly up to 57.5 µM; activity change, negative = inhibition: at the top concentration
Summary of the method: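 Recombinant firefly luciferase at 10 nM final in 50 mM Tris pH 7.5, 10 mM MgCl2, 0.05% BSA, 0.01% Tween20 with substrate; compounds up to 57 uM final, 10 min room temperature, end-point luminescence. Buffer-only wells define 100% inhibition.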
% is scaled to controls: 0 for no effect and ±100 for the full control effect; potency is read from the fitted curve at half-maximal effect.

Row | Compound | activity change, negative = inhibition | Potency
1 | Cc1cc(C)nc(/N=C(\N)Nc2ccc(OCc3ccccc3)cc2)n1 | inactive: -2.97% | 
2 | O=C1N/C(=N/N=C/c2ccccc2O)SC1Cc1ccc(F)cc1 (stereo not given) | inactive: -4.65% | 
3 | COc1ccc(C)cc1NC(=O)COC(=O)c1c(C)nn(-c2ccccc2)c1C | inactive: -5.21% | 
4 | CC(C)(C)c1cc(C(=O)NN)n(Cc2ccc(Cl)cc2Cl)n1 | inactive: -0.197% | 
5 | CC(=O)Oc1ccc(N(C(C)=O)S(=O)(=O)c2cccs2)c2ccccc12 | inactive: -8.46% | 
6 | CCc1nn2cc(C(=O)c3cc(Cl)ccc3O)cnc2c1-c1ccc(F)cc1 | inactive: -7.19% | 
7 | NC(c1csc(Nc2ccc(C(F)(F)F)cn2)n1)C1CCCCC1 (stereo not given) | inactive: 3.49% | 
8 | O=C(N/N=C/c1cc([N+](=O)[O-])ccc1O)c1cccc2cc[nH]c12 | inactive: -6.69% | 
9 | OC1CCCN(Cc2c3ccccc3cc3ccccc23)C1 (stereo not given) | inactive: -3.26% | 
10 | Cc1cc(C)cc(C(=O)N(NC(=O)Nc2ccc(Cl)cc2)C(C)(C)C)c1 | inactive: 0.606% | 
11 | CN(CC(=O)Nc1ccc(Cl)c(C(F)(F)F)c1)C(=O)c1cccnc1Sc1ccccc1 | inactive: 2.21% | 
12 | COc1cc(-c2cnc3c(NC=O)cc(-c4cccc(C(F)(F)F)c4)cn23)cc(OC)c1OC | inactive: -4.12% | 
13 | CCOC(=O)c1sc2nc(CSc3ccccc3)nc(NCCN(C)C)c2c1C | inactive: 0.864% | 
14 | Cc1occc1C(=O)N/N=C/c1c(O)ccc2ccccc12 | inactive: -18.3% | 
15 | O=C(CNC(=O)c1ccc(F)cc1)N/N=C/c1cc(Br)ccc1OC(=O)/C=C/c1ccco1 | inactive: -1.3% | 
16 | CC[n+]1c(/C=C/N(C)c2ccccc2)oc2ccc(F)cc21 | inactive: 2.57% | 
17 | CC1CC(Nc2ccccc2)c2ccccc2N1C(=O)c1cccnc1 (stereo not given) | inactive: 2.41% | 
18 | COc1ccccc1CNc1nc(NCc2cccc(OC)c2OC)c2sccc2n1 | inactive: -8.98% | 
19 | CCCCCc1ccc(OCCCC[n+]2cccc(C)c2)c(CCCCC)c1 | inactive: 2.9% | 
20 | O=C(N/N=C/c1sc(N2CCOCC2)nc1-c1ccccc1)c1ccccc1O | inactive: -18.3% | 
21 | Cc1ccc(S(=O)(=O)c2cc3cc(Br)ccc3oc2=O)cc1 | inactive: -1.09% | 
22 | Oc1c(CN2CCOCC2)cc(COCc2ccccc2)c2cccnc12 | inactive: 0.0549% | 

Row | Compound | activity change, negative = inhibition | Potency
23 | CCN(CC)CCCNc1nc2ccccc2c2nc(-c3ccncc3)nn12 | inactive: -3.43% | 
24 | COc1ccc2oc(/C=C/N(C)C)c(C(=O)c3ccc(Cl)cc3)c2c1 | inactive: -4.4% | 
25 | CCn1c2ccccc2c2cc(NC(=O)COC(=O)c3cccc(S(=O)(=O)NC)c3)ccc21 | inactive: -5.82% | 
26 | CSc1ncnc2c1ncn2CC(=O)C1CCC2C3CCC4=CC(=O)CCC4(C)C3CCC12C (stereo not given) | inactive: -0.252% | 
27 | CCN1CCN(C(=S)c2ccc(-c3ccccc3)cc2)CC1 | inactive: -6.16% | 
28 | COc1cccc2nc3c(C(=O)NCCN(C)C)cccc3cc12 | inactive: -5.3% | 
29 | O=C(c1ccoc1)N1CCN(c2cc(-c3ccccc3)nc3cc(-c4ccccc4)nn23)CC1 | inactive: 0.794% | 
30 | COc1ccc(OC)c(NC(=O)CSc2nnnn2-c2ccc3c(c2)OCO3)c1 | inactive: 0.0331% | 
31 | CCCCOc1ccc(CSC(=N)N)cc1Cl | inactive: -4.4% | 
32 | Cc1ccc(/C=C2\SC(=S)N(CCCC(=O)Nc3nccs3)C2=O)cc1 | inactive: -2.68% | 
33 | Cc1ccc(-n2ncc(C(=O)Nc3ccc(Cl)cc3)c2C2CCNCC2)cc1C | inactive: 0.188% | 
34 | C[C@@H]1CC=C[C@@H]2[C@H]1C(=O)N(Cc1ccccc1)[C@H]2c1ccccc1Br | inactive: -7.47% | 
35 | COc1ccccc1/C=C\C(=O)NCC(=O)N/N=C/c1cccc(OC)c1O | inactive: -7.1% | 
36 | O=C(N/N=C1\CCCc2c1[nH]c1ccc(Cl)cc21)c1ccncc1 | inactive: -6.51% | 
37 | OCCN1CCN(C(=S)c2ccc(-c3ccccc3)cc2)CC1 | inactive: -15% | 
38 | Cc1cc(SCC(=O)OC/C(O)=C(\C#N)c2nc3ccccc3[nH]2)c(C)cc1Br | inactive: -12.3% | 
39 | CC(C)C(CCNCc1ccccn1)c1ccc(Cl)cc1 (stereo not given) | inactive: 5.07% | 
40 | O=C1c2cccc3cc([N+](=O)[O-])cc(c23)C(=O)N1CCN1CCCC1 | inactive: 1.39% | 
41 | O=C(CCSc1nc2ccccc2s1)N/N=C/c1c(O)ccc2ccccc12 | inactive: 3.04% | 
42 | S=C(Nc1ccccc1)Nc1ccc(OCc2ccc(Cl)cc2Cl)cc1 | inactive: -8.77% | 
43 | O=C(Nc1ccc(Cl)c([N+](=O)[O-])c1)c1ccc(NCCCN2CCOCC2)c([N+](=O)[O-])c1 | inactive: 1.04% | 
44 | COc1ccccc1Cc1c(-c2ccco2)nc2c(C)cc(Br)cn12 |  | active: 15.8 µM

Row | Compound | activity change, negative = inhibition | Potency
45 | CS(=O)(=O)c1ccc(Nc2nc(C(N)Cc3ccc(C(F)(F)F)cc3)cs2)cc1 (stereo not given) | inactive: -7.22% | 
46 | CN1CCC(N(C)C(=O)c2ccc(Cl)c(S(=O)(=O)N3CCc4ccccc43)c2)CC1 | inactive: 3.31% | 
47 | N=c1n(CCCOc2ccccc2Cl)c2ccccc2n1CC(N)=O | inactive: -13.7% | 
48 | O=C(CN1C(=O)c2ccccc2S1(=O)=O)c1ccc(Cl)cc1Cl |  | active: 0.562 µM
49 | COc1ccc2c(c1)CCCN2S(=O)(=O)c1ccc(Cl)cc1 | inactive: 0.417% | 
50 | Cc1cc(C)c2nc(NNC(=O)c3ccc(S(=O)(=O)N4CCc5ccccc5C4)cc3)sc2c1 | inactive: -16.6% | 
51 | COc1cc2nc(N(C)C)nc(N)c2cc1OC | inactive: -5.16% | 
52 | Cc1nc2c(OCc3cc(Cl)cc(Cl)c3)cccn2c1N(C)C(=O)CCC1CCCC1 | inactive: -6.24% | 
53 | Cc1cc2oc3ccc(NCCC4CCCN4C)cc3c(=O)c2cc1C (stereo not given) |  | active: 6.31 µM
54 | Cc1sc2ncnc(NCC(O)c3ccc([N+](=O)[O-])cc3)c2c1C (stereo not given) | inactive: -0.514% | 
55 | COc1ccc(C2CC(c3cccc(Cl)c3)=NN2c2ccc(S(N)(=O)=O)cc2)cc1 (stereo not given) | inactive: -6.69% | 
56 | CC(C)(C)S(=O)(=O)/C(C#N)=N/Nc1ccc(Cl)cc1 | inactive: -16.2% | 
57 | CN1CCC(NC(=O)c2cc(-c3cccc(Br)c3)nc3ccccc23)CC1 | inactive: -6.79% | 
58 | COc1ccc(C(=O)N2CCN(c3nc(C4CC4)nc4sc(C)c(C)c34)CC2)cc1 | inactive: -0.954% | 
59 | CCC(CC)C(=O)c1c[nH]c(C(=O)NCc2ccccn2)c1 | inactive: -2.54% | 
60 | CC(=O)Oc1ccc(N(C(C)=O)S(=O)(=O)c2ccc(Cl)cc2)c2ccccc12 | inactive: -17.1% | 
61 | CC(=O)NC(c1ccco1)c1cc(Cl)c2cccnc2c1O (stereo not given) | inactive: -13.4% | 
62 | CC(C)C(=O)Nc1ccc(C(=O)N/N=C/c2cc(Br)cc(Br)c2O)cc1 | inactive: 0.779% | 
63 | Cc1cccn2c(=O)c3cc(C(=O)NCCN4CCOCC4)c(=N)n(Cc4ccc(F)cc4)c3nc12 | inactive: -2.07% | 
64 | Cc1ccnn1CC(=O)N/N=C/c1ccc([N+](=O)[O-])s1 | inactive: -0.488% | 
65 | CC1=C(C(=O)N(C(C)C)C(C)C)CC(CC(=O)NC2CCCC2)C(=O)N1Cc1ccc(C(C)(C)C)cc1 (stereo not given) | inactive: 1.8% | 

Three structures from above, arranged by molar mass, rising:
Row | Compound | activity change, negative = inhibition | Potency
56 | CC(C)(C)S(=O)(=O)/C(C#N)=N/Nc1ccc(Cl)cc1 | inactive: -16.2% | 
55 | COc1ccc(C2CC(c3cccc(Cl)c3)=NN2c2ccc(S(N)(=O)=O)cc2)cc1 (stereo not given) | inactive: -6.69% | 
62 | CC(C)C(=O)Nc1ccc(C(=O)N/N=C/c2cc(Br)cc(Br)c2O)cc1 | inactive: 0.779% | 
